Measurements reported in paper PMC12149670.
No constants are given. Whether binding was seen depends on the method and setting. Binding seen in cells or lysates may run through a third protein. A yes stands for co-enrichment or nearness to the bait. Other partners may have been found. For some assays here: A no says only that the protein was not detected with the bait.

Sequences of proteins named here, by UniProt entry; tags and fusion partners are left off.
UniProt P56546: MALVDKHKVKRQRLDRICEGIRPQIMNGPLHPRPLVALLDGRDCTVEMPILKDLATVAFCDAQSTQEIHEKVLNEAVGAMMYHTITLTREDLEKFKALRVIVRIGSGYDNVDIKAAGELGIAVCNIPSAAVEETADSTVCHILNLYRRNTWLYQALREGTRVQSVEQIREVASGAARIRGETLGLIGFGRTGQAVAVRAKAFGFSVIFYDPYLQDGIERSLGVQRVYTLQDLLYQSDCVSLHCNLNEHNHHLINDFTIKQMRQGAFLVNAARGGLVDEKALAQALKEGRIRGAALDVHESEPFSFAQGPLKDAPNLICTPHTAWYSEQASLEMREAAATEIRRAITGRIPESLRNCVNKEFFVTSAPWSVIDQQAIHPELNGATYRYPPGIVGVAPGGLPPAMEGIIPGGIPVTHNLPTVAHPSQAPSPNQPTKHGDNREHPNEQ
UniProt O35381: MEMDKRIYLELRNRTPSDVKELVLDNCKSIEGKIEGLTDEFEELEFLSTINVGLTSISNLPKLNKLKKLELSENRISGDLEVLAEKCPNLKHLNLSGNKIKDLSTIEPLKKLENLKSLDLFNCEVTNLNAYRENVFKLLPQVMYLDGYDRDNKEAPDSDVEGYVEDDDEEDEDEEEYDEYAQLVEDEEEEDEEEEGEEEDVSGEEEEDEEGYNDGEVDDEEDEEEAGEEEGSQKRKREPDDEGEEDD
UniProt P28033: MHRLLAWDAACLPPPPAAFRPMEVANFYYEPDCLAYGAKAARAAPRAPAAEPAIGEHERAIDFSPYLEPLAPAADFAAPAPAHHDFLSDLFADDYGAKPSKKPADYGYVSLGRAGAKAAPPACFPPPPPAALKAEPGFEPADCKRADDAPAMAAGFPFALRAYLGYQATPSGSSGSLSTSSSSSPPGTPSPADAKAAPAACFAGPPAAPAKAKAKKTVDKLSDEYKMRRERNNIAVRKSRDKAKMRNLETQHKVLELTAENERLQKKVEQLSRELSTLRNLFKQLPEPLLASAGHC
UniProt P05627: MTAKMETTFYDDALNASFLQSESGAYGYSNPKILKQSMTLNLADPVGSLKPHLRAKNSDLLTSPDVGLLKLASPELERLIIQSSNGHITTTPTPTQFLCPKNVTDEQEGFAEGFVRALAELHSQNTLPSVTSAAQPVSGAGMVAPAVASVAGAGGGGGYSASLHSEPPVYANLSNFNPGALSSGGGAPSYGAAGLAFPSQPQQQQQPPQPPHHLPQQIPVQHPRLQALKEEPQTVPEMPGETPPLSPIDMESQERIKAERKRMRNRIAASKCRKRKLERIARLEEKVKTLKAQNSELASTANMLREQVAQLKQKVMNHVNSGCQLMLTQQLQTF
UniProt P25799: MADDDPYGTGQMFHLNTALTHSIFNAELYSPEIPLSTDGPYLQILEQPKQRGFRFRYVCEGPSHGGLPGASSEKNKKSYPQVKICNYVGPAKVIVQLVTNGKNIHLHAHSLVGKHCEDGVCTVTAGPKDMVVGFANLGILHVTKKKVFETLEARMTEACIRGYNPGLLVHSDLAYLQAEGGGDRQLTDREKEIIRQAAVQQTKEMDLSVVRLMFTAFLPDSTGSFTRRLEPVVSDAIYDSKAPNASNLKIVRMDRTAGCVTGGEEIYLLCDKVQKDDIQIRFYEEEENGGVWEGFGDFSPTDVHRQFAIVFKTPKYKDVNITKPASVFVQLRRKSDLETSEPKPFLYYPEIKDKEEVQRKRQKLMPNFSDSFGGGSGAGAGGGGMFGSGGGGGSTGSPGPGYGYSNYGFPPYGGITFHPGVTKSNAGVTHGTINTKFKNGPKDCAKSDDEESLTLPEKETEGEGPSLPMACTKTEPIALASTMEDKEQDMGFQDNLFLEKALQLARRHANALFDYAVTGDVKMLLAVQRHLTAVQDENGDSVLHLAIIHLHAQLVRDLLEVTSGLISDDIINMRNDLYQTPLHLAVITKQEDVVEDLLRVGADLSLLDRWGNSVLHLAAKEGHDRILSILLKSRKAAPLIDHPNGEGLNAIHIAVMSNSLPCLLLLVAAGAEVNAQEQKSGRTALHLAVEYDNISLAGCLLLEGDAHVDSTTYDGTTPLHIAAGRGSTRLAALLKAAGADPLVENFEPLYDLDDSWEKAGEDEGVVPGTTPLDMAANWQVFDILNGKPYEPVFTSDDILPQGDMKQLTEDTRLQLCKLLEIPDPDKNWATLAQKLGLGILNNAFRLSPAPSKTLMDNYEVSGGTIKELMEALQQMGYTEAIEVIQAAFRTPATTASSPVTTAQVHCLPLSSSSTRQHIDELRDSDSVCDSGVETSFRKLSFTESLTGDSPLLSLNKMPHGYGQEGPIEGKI
UniProt P15307: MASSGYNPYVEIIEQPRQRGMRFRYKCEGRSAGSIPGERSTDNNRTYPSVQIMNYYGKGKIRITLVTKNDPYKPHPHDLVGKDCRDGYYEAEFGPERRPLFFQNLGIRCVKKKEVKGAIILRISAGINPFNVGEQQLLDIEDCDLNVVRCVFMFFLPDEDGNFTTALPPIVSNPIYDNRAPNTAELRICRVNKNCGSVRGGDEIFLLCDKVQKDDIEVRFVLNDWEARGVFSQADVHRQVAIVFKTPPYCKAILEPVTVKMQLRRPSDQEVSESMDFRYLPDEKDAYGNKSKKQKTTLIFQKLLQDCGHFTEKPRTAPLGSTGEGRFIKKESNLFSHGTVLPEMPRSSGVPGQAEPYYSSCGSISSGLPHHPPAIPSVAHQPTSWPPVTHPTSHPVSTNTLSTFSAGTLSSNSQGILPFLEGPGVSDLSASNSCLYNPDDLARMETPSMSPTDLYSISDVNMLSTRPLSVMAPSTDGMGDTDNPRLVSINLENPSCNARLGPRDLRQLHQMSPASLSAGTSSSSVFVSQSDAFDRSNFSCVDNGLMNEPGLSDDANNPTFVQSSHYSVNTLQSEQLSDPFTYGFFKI
UniProt Q04207: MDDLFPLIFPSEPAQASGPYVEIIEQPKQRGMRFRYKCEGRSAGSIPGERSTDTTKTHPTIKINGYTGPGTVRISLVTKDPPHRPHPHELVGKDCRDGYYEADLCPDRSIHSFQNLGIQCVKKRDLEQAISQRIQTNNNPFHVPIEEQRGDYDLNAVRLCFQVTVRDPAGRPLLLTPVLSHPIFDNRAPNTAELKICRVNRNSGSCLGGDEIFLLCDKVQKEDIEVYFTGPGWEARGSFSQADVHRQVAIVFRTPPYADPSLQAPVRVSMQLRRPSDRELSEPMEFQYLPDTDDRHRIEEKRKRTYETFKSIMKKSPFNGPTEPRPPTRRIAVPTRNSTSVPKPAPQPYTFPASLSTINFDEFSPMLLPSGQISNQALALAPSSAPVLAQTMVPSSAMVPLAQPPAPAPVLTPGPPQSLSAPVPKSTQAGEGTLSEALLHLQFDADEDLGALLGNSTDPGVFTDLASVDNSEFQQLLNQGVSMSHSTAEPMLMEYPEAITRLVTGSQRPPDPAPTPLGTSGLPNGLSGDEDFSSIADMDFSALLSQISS
UniProt O88286: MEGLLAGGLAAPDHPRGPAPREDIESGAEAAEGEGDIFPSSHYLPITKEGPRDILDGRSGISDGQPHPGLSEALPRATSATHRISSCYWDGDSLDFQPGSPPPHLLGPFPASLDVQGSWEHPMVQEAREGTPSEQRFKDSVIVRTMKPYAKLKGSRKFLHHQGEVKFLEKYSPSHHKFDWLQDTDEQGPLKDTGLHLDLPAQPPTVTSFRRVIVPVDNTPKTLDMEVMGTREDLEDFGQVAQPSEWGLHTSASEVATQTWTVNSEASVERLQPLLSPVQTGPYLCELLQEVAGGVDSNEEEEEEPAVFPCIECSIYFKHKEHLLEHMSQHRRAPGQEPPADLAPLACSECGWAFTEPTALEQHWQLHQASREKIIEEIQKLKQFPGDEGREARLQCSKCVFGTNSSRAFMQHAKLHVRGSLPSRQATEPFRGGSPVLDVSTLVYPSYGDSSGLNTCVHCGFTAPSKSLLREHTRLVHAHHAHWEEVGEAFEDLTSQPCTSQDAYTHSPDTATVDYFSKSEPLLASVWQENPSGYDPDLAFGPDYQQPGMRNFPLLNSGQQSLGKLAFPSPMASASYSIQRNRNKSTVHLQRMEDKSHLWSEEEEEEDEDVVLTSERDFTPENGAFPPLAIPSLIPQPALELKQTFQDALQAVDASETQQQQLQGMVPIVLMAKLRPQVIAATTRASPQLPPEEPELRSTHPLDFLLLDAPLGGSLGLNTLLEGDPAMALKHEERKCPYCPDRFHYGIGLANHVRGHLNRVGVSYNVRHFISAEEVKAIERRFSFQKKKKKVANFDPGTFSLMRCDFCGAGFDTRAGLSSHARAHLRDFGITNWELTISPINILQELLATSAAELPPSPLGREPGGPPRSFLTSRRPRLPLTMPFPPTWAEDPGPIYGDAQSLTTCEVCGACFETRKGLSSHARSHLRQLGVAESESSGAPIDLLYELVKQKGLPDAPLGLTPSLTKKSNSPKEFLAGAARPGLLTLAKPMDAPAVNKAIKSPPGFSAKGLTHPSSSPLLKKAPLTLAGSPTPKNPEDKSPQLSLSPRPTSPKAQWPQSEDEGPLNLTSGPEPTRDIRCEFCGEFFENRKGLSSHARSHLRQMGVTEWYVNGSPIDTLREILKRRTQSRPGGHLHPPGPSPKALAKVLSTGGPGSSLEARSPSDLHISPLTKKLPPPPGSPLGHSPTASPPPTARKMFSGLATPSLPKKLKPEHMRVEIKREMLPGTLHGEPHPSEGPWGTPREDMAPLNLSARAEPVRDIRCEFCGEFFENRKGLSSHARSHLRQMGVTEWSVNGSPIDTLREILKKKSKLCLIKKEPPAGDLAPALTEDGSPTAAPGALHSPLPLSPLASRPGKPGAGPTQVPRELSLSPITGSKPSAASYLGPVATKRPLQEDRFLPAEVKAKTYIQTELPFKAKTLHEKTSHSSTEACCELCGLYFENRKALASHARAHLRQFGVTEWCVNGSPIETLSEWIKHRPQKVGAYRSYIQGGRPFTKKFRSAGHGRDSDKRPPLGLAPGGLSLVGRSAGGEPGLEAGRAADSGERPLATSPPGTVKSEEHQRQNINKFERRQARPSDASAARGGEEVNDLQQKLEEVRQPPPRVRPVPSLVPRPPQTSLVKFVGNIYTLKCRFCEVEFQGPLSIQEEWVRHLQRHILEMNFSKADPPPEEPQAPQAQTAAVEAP
UniProt Q3U0X6: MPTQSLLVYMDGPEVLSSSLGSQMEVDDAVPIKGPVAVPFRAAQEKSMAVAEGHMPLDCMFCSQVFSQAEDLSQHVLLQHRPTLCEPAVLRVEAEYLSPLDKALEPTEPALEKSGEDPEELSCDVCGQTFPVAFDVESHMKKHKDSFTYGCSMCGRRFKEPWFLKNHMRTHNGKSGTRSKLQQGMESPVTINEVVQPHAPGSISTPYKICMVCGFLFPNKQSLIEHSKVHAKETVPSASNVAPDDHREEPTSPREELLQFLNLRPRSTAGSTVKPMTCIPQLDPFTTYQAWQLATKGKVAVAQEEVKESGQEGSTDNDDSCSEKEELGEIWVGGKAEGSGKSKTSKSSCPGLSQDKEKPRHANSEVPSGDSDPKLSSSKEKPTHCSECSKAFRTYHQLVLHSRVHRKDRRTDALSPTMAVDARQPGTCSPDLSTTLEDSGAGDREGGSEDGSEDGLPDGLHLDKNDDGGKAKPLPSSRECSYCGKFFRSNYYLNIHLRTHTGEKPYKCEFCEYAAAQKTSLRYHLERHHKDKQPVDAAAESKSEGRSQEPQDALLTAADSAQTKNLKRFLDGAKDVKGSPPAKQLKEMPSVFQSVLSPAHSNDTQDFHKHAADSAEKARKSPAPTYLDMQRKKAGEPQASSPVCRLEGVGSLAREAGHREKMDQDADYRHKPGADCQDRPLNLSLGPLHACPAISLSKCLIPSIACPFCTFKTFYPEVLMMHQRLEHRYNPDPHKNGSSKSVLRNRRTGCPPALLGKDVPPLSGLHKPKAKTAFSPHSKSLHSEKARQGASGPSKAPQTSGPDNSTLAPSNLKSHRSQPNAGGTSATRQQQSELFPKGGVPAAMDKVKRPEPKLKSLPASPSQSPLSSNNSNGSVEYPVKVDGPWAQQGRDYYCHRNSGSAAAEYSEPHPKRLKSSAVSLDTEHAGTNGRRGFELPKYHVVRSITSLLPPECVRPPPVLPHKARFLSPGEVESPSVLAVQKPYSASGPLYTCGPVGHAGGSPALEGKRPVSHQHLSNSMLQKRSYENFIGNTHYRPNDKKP

Key:
[1] = molecular target: CTBP2 wt (stably re-expressed in J774.1 Ctbp dKO cells) (human) (UniProt P56545); assay: affinity purification with mass spectrometry; ChIP-MS for CTBP2 (anti-CTBP2) after LPS stimulation in J774.1 Ctbp dKO cells re-expressing CTBP2 wt or CTBP2 mono; cross-linked chromatin; wt compared with mono and with IgG (fold change > 4 and Padj < 0.05); n = 3 technical replicates
[2] = molecular target: C-terminal binding protein 2 (CTBP2), endogenous in murine BMDMs (mouse (endogenous in BMDMs)) (UniProt P56546); assay: affinity purification with mass spectrometry; ChIP-MS: BMDMs treated with LPS (100 ng/ml, 3 h) or vehicle, fixed with 2 mM DSG and 1% formaldehyde, sonicated chromatin precipitated with anti-CTBP2 (#61261; Active Motif) against an IgG control; washes with 140 mM and 500 mM NaCl buffers; enriched: fold change > 4 and Padj < 0.05; n = 3
[3] = molecular target: C-terminal binding protein 2 (CTBP2), endogenous in murine BMDMs (mouse (endogenous in BMDMs)) (UniProt P56546); assay: affinity purification with mass spectrometry; differential ChIP-MS for CTBP2, LPS-treated against vehicle-treated BMDMs (absolute fold change > 4 and Padj < 0.05); the LPS condition

Row | binding [1] | binding [2] | binding [3] | Substance
1 | binds |  |  | ANP32A (from UniProt O35381 1-247)
2 |  | binds |  | BCOR (from UniProt Q8CGN4 1-1759)
3 |  | binds |  | CEBPB (from UniProt P28033 1-296)
4 |  | binds | no binding (only after LPS stimulation) | JUN, endogenous in murine BMDMs (from UniProt P05627 1-334)
5 |  | binds |  | NFΚB1 (from UniProt P25799 1-971)
6 |  | binds |  | REL (from UniProt P15307 1-587)
7 |  | binds |  | RELA, endogenous in murine BMDMs (from UniProt Q04207 1-549)
8 | binds | binds |  | WIZ (from UniProt O88286 1-1684)
9 |  | binds |  | ZFP217 (from UniProt Q3U0X6 1-1041)
